# PubChem BioAssay AID493246, Drosophila RNAi Screening Center – 2011
# Assay: 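Genes fly cells need to grow and stay alive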 (primary screen)
# Cells: Drosophila Kc and S2R+ cells
# Reagents: long dsRNA against Drosophila genes
# Detection: 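Raw, unnormalised count of remaining cells in each well; per-plate z-scores of cell number underlie the calls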
# Reading the numbers: Kc cell number and S2R+ cell number: higher = more cells remaining
# Hit rule: 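Counted as a hit if cell number falls by a z-score of at least 3 within its plate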
# In all, the deposit lists about 21,000 reagents; this is a random part of those that have a named target and a result. Over the whole deposit, 429 (2%) got an active call. 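Values are raw and not normalised between plates; calls rest on per-plate z-scores that were not deposited.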 The numbers tell different reagents against one gene apart. A plus sign joins genes that one reagent is predicted to hit. Not stated in the record: the amount of reagent, the time to read-out.
target gene,dsRNA no.,"Kc cell number, rep 1","Kc cell number, rep 2","S2R+ cell number, rep 1","S2R+ cell number, rep 2",call
CG12310,1,1.34e6,1.43e6,1.18e6,1.25e6,inactive
CG18558,1,1.63e6,1.60e6,1.08e6,1.20e6,inactive
dtr (defective transmitter release),1,5.06e5,,8.30e5,,inactive
fwe (flower),1,1.43e6,1.48e6,1.13e6,1.31e6,inactive
fwe (flower),2,1.58e6,1.55e6,1.21e6,1.29e6,inactive
Nepl14 (Neprilysin-like 14),1,1.49e6,1.47e6,9.77e5,1.04e6,inactive
CG11883,1,1.40e6,1.42e6,1.20e6,1.21e6,inactive
kud (kuduk),1,1.25e6,1.52e6,1.36e6,1.47e6,inactive
CG13323,1,1.50e6,1.46e6,1.21e6,1.28e6,inactive
tko (technical knockout),1,1.45e6,1.46e6,9.16e5,1.08e6,inactive
CG42538,1,1.36e6,1.48e6,1.14e6,1.27e6,inactive
CG11970,1,1.83e6,1.95e6,1.55e6,1.53e6,inactive
fd96Cb (forkhead domain 96Cb),1,1.42e6,1.41e6,9.30e5,9.81e5,inactive
ND-51L1 (NADH dehydrogenase (ubiquinone) 51 kDa subunit-like 1),1,1.58e6,1.63e6,1.18e6,1.37e6,inactive
nopo (no poles),1,1.40e6,1.38e6,1.17e6,1.26e6,inactive
Uch (Ubiquitin carboxy-terminal hydrolase),1,1.26e6,1.31e6,8.37e5,7.69e5,inactive
QIL1,1,1.33e6,1.41e6,1.12e6,1.21e6,inactive
CG18231,1,1.40e6,1.55e6,1.30e6,1.42e6,inactive
Gdap2,1,1.69e6,1.73e6,1.40e6,1.61e6,inactive
Gdap2,2,1.63e6,1.67e6,1.38e6,1.57e6,inactive
Ostgamma (Oligosaccharide transferase gamma subunit),1,1.32e6,1.37e6,5.58e5,6.76e5,inactive
CG2962,1,6.34e5,,9.57e5,,inactive

Reprinted from the listing, 5 entries:
target gene,dsRNA no.,"Kc cell number, rep 1","Kc cell number, rep 2","S2R+ cell number, rep 1","S2R+ cell number, rep 2",call
CG42538,1,1.36e6,1.48e6,1.14e6,1.27e6,inactive
CG11970,1,1.83e6,1.95e6,1.55e6,1.53e6,inactive
fd96Cb (forkhead domain 96Cb),1,1.42e6,1.41e6,9.30e5,9.81e5,inactive
ND-51L1 (NADH dehydrogenase (ubiquinone) 51 kDa subunit-like 1),1,1.58e6,1.63e6,1.18e6,1.37e6,inactive
nopo (no poles),1,1.40e6,1.38e6,1.17e6,1.26e6,inactive

More reagents follow:
target gene,dsRNA no.,"Kc cell number, rep 1","Kc cell number, rep 2","S2R+ cell number, rep 1","S2R+ cell number, rep 2",call
ecd (ecdysoneless),1,1.40e6,1.41e6,1.23e6,1.29e6,inactive
Cipc (Clock interacting protein circadian),1,5.00e5,,7.95e5,,inactive
Cipc (Clock interacting protein circadian),2,1.60e6,1.69e6,1.01e6,1.12e6,inactive
TwdlM (TweedleM),1,1.58e6,1.66e6,1.01e6,1.13e6,inactive
Saf6 (SAGA factor-like TAF6),1,1.29e6,1.31e6,7.41e5,9.15e5,inactive
Eig71Eg (Ecdysone-induced gene 71Eg),1,1.40e6,1.52e6,1.22e6,1.31e6,inactive
"Edem1 (ER degradation enhancer, mannosidase alpha-like 1)",1,4.86e5,,7.84e5,,inactive
Cpr49Aa (Cuticular protein 49Aa),1,1.61e6,1.62e6,1.17e6,1.30e6,inactive
His2B:CG33870 + His2B:CG33868 + His2B:CG33882 + 21 more,1,6.33e5,7.48e5,4.68e5,2.56e5,active
CG46385,1,5.93e5,7.96e5,3.78e5,4.59e5,active
CG46385,2,1.67e6,1.65e6,1.39e6,1.61e6,inactive
Spn38F (Serpin 38F),1,1.72e6,1.80e6,1.27e6,2.75e5,inactive
CanA-14F (Calcineurin A at 14F),1,1.43e6,1.50e6,9.94e5,1.06e6,inactive
CG2924,1,5.12e5,,9.09e5,,inactive
CG34447,1,1.50e6,1.61e6,1.04e6,1.20e6,inactive
CG42512 + CG32573,1,1.51e6,1.53e6,1.06e6,1.08e6,inactive
CG42512 + CG32573,2,1.63e6,1.70e6,1.09e6,1.21e6,inactive
CG34436,1,1.61e6,1.65e6,1.04e6,1.15e6,inactive
